Experiment: Stability in mouse liver homogenate
Details: conclusion in words

In the case of `COC(=O)C1=C(CN2CC(F)(F)C[C@H]2C(=O)O)NC(c2nccs2)=N[C@@]1(C)c1ccc(F)cc1` [Example 13, (S)-6-((S)-2-Carboxy-4,4-difluoro-pyrrolidin-1-ylmethyl)-4-(4-fluoro-phenyl)-4-methyl-2-thiazol-2-yl-1,4-dihydro-pyrimidine-5-carboxylic acid methyl ester], the “stability in liver homogenate treated with saline” value is reported as “stable”.

Reference: patent US9856247B2, “4-methyl-dihydropyrimidines for the treatment and prophylaxis of Hepatitis B virus infection” (Hoffmann-La Roche Inc., priority 2012, dated 2018)
